Source: PMC6548343
Results are given in words; binding and its absence hold for the method and conditions named. Some binding calls cover weakened binding; strength is not graded here.

Amino acid sequences for entries named in this document (tags omitted). A change or cut given only in a name is not applied to a line headed by its entry. Residues count along the entry.
UniProt P53115: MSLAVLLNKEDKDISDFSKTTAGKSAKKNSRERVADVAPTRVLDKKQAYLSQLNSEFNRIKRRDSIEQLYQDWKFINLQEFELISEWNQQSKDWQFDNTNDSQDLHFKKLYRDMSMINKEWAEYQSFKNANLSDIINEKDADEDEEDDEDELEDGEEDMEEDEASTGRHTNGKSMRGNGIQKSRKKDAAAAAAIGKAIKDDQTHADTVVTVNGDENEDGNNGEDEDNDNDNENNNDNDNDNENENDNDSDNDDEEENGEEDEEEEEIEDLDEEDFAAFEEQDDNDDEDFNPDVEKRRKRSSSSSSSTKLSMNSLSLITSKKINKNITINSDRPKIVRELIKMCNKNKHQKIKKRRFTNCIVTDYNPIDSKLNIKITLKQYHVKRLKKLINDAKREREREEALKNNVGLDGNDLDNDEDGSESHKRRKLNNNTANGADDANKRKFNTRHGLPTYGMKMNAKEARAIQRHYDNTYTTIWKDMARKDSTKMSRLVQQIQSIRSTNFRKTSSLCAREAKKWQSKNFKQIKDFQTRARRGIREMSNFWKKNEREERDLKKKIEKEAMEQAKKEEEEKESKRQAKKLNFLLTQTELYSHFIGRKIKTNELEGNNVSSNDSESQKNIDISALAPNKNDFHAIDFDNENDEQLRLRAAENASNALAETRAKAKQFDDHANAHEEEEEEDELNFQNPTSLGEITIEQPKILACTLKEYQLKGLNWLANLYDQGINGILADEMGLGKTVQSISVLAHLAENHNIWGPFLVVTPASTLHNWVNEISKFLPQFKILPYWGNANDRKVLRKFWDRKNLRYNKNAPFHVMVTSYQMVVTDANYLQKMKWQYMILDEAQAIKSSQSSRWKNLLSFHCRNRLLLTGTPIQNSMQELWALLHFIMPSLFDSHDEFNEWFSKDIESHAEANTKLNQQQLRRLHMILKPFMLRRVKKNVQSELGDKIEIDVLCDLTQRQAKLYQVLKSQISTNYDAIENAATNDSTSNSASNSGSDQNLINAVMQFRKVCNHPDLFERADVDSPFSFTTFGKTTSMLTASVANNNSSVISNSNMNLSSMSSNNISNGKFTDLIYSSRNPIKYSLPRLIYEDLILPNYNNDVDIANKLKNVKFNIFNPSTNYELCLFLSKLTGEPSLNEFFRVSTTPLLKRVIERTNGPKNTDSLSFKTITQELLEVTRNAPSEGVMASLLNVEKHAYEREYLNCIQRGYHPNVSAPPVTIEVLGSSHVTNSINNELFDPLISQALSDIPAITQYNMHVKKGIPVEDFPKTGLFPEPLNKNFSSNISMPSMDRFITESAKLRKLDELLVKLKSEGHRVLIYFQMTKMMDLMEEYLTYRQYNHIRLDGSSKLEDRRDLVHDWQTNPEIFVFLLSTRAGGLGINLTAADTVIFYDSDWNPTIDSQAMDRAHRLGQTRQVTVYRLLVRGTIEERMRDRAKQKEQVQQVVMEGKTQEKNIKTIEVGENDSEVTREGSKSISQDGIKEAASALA
Ino80 (356–691 aa, named as N-FLAG): residues 356-691 of P53115

Tests used:
[1] = target: Ino80 with C-terminal modified TAP tag (Arp8Δ and Ies1Δ strains) (S. cerevisiae) (UniProt P53115); experiment: EM 3D reconstruction with difference mapping; INO80 sub-complex purified by TAP-tagged Ino80 from the Arp8Δ strain, compared with the holoenzyme and with the Ies1Δ sub-complex
[2] = target: Ino80-2×FLAG (S. cerevisiae) (UniProt P53115); experiment: cryo-EM structure; endogenous INO80 complex purified by Ino80-2×FLAG, GraFix (0.02% glutaraldehyde), 13.1 Å; modules assigned by difference maps with the Arp8Δ and Ies1Δ sub-complexes and by rigid-body fitting
[3] = target: Ino80 (356–691 aa, named as N-FLAG) (S. cerevisiae) (UniProt P53115); experiment: affinity co-purification (FLAG resin, then Mono Q) with SDS-PAGE or EM of the fractions; whole-cell extract of S. cerevisiae, 30%–55% ammonium sulfate cut, FLAG resin 2 h at 4°C, washes with 500 mM and 50 mM ammonium sulfate, elution with 3×FLAG peptide, Mono Q gradient 100–1000 mM ammonium sulfate

Binder	binding [1]	binding [2]	binding [3]
Nhp10 module (Nhp10–Ies1–Ies3–Ies5) (complex, UniProt Q03435 1-203; P43579 1-692; Q12345 1-250; P40060 1-125) chain 1: MSVEEKKRRLEELKDQNVVLGLAIQRSRLSVKRLKLEYGVLLERLESRIELDPELNCEDPLPTLASFKQELLTKPFRKSKTKRHKVKERDPNMPKRPTNAYLLYCEMNKERIRQNGSLDVTRDLAEGWKNLNEQDRKPYYKLYSEDRERYQMEMEIYNKKISNIDADDDKEENEQKIKNNEEGSSTKVADSKGGEDGSLVSSN chain 2: MGKRVYDPIHDTFQLREDNSDETKADSPMQSVKSGSQEEASPSSIQSETETVTTKSIPVIHEIEIDDKNDDDSTQSEEENTNILLNFEPSTVPEATGASTATGPVTTNTVRRKPKESNASKYNRHLKKPDGEPFNRKDIQFSFMQELLMDKRQIFTNVLKPLYKNSIVPINIDGDKLSINVTDKEYDARTFVFNDKLTFAQLYVLTIATSIKCSKILRDKLLLDQQVAFSTCVLALLVNIGRLNTTINFYLEMTSQLRTFHSVPVLQLHANDPKLLQDTPRLKSILKNLPWGNEQLSLMETYKKVDQNDGEVDTVNKFNIINMLFSICDNSGLIDKRFLSKYVEVESKAQEQDMVDEQNEVKETEAENEKQESKAAYATTLFDILDYSKYEPKDRSNILIWLLYIHLETNLSQEEVEESVRFFNGLEDGAPAGKFILRCTERSYDTDPEDELEFGANQRIKRREFMSKMEEGRKRERTNVTEVKKPSIGGDKSEEDGEGEDDKSEETVEETRSLLTPTPILESSSPMTLNRKKVTPQLPKVTPAAPTETEEEITSAAIIDKNDLNLTPLKKYNSSATVNKVDKLISLDLNKHVSENGKTQEEFLADLKKSQVPNRLKRRDIGLIKIFNEFEDIPVASVLGIRGKKRKKFKDNLLGFETDFMKNLGASKKVLLNKIERAEIDDEEATAMFKLE chain 3: MKFEDLLATNKQVQFAHAATQHYKSVKTPDFLEKDPHHKKFHNADGLNQQGSSTPSTATDANAASTASTHTNTTTFKRHIVAVDDISKMNYEMIKNSPGNVITNANQDEIDISTLKTRLYKDNLYAMNDNFLQAVNDQIVTLNAAEQDQETEDPDLSDDEKIDILTKIQENLLEEYQKLSQKERKWFILKELLLDANVELDLFSNRGRKASHPIAFGAVAIPTNVNANSLAFNRTKRRKINKNGLLENIL chain 4: MPSKDPESVIDKEIRKISARNDELIKQDGTLKREYTTLLRKVSSVITVLNSIDDADTGSAETELPRLISQATVEKVPELKWYNDQISLITEKLEDDEDIEVPEELMDAYTLYKETPLLYNDTHTP	binds	binds	–
Ies4 (protein, UniProt Q08561 1-116) MSQESSVLSESQEQLANNPKIEDTSPPSANSRDNSKPVLPWDYKNKAIEIKSFSGYKVNFTGWIRRDVREERQRGSEFTASDVKGSDDKATRKKEPADEDPEVKQLEKEGEDGLDS	–	–	binds
